16 compounds from PubChem BioAssay AID2685 (National Center for Advancing Translational Sciences (NCATS), 2010) can be followed below.

This assay is described as follows: qHTS Assay for Lipid Storage Modulators in Drosophila S3 Cells.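 On cell number change: cells counted by Cell Tracker Red CMTPX staining in the red channel.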 To be noted: BODIPY lipid droplet fluorescence, 18-24 h; for cell number change: measured here: cell count max response, cells fed with added oleic acid. In outline: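 Drosophila S3 cells got compounds at several concentrations plus oleic acid (400 uM solution). Laser-scanning cytometry with 488 nm excitation read lipid droplets at 500-530 nm and cells at 575-640 nm. Percent activity was relative to 20 uM Triacsin C.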

The mark [1] stands for this setting: measured here: lipid fluorescence (Fed channel) AC50, cells fed with added oleic acid.
Where [2] appears, read: measured here: cell number channel AC50, cells fed with added oleic acid.

A word on the AC50: it is the concentration at which the activity in the assay is half-maximal. A lower AC50 goes with greater potency.

The structures appear in SMILES notation. This is one part of the list. The main result of the screen is listed elsewhere. These columns were measured beside it and carry no call. Most of these compounds were active or inconclusive in the main read-out, so they are no random draw. Potencies come from curve fits of mixed quality, noted in brackets.

On to `CC(Sc1ccccc1)C(=O)N1CCN(S(=O)(=O)c2ccc(Cl)cc2)CC1` (configuration not stated), for which the cell number change turned out to be 14.6%. Besides, the AC50 under setting [1] was 0.116 µM [rising, partial curve, poor fit].
On to `Oc1ccc(Br)cc1-c1nc2cnccn2c1NC1CCCCC1`, for which the cell number change was -25.5%. Also, the AC50 under setting [1] was 0.651 µM [rising, single point].
As for `CCN(CC(=O)NC(C)(C)C)C(=O)C(c1ccccc1)c1ccccc1`, the cell number change is -19.3%.
In the case of `Nc1c(S(=O)(=O)c2cccc(Cl)c2)c2nc3ccccc3nc2n1/N=C/c1ccc(O)c(O)c1`, the cell number change is -61%. In addition, the AC50 under setting [2] is 29.1 µM [falling, single point].
Turning to `CCn1c(-c2ccccc2)c(C(=O)CC#N)c2ccccc21`, under setting [2], the AC50 is 3.26 µM [falling, partial curve, poor fit].
Take `O=C(COn1nnc2ccc(Cl)cc21)NC1CCS(=O)(=O)C1` (configuration not stated): the cell number change turned out to be 4.8%. Also, the AC50 under setting [1] is 18.4 µM [rising, single point].
As for `Cc1ccn2cc(CCNS(=O)(=O)c3ccc([N+](=O)[O-])cc3)nc2c1`, the cell number change was 19.2%. In addition, the AC50 under setting [1] was 29.1 µM [rising, single point].
On to `CC1CCN(S(=O)(=O)c2ccc(-c3nnc(SCc4cccnc4)o3)cc2)CC1`, for which the cell number change was 8.3%. Further, the AC50 under setting [1] was 2.06 µM [rising, partial curve].
As to `COc1cc2c(C(=O)N3CCN(c4ccccc4C)CC3)c(C)oc2cc1Br`, the cell number change came to 20.8%. Moreover, the AC50 under setting [1] was 5.8 µM [rising, partial curve, poor fit].
Take `Cc1cc(C(F)(F)F)nn1CC(=O)NNC(=S)Nc1ccc(Cl)cc1`: the cell number change was -1.8%. In addition, the concentration at half-maximal activity (AC50) under setting [1] was 6.51 µM [rising, single point].
Consider `Cc1cc(C)n(CC2CC(=O)N(c3ccc(Cl)cc3)C2=O)n1` (configuration not stated), for which the cell number change was 27.5%. Under setting [2], the half-maximal activity concentration (AC50) is 0.164 µM [rising, full curve, poor fit].
In the case of `C=CCNC(=O)c1ccccc1NC(=O)COc1ccccc1`, the cell number change is 9.56%. In addition, the half-maximal activity concentration (AC50) under setting [2] is 0.731 µM [falling, single point]. Under setting [1], the concentration at half-maximal activity (AC50) is 0.651 µM [falling, single point].
Regarding `CCn1c(=O)cc(OCC(=O)N2CCCCCC2)c2ccccc21`, the cell number change is -12.3%. Besides, the AC50 under setting [1] was 20.6 µM [rising, single point].
On to `Cc1nn(C)c(C)c1CNC(=O)c1nn2c(c1Cl)NC(c1cccs1)CC2C(F)(F)F` (configuration not stated), for which the cell number change worked out at 28.6%. Also, the AC50 under setting [2] was 6.51 µM [rising, single point].
Consider `COc1ccccc1C(c1nnnn1CCc1ccccc1)N1CCCCCC1` (configuration not stated), for which the cell number change stood at 12.4%. In addition, the AC50 under setting [1] is 0.146 µM [falling, full curve, poor fit].
As for `CCCCNC(=O)C1C2C=CC3(CN(Cc4ccccc4Cl)C(=O)C13)O2` (configuration not stated), the cell number change was 43.8%. Moreover, under setting [2], the AC50 is 18.4 µM [rising, single point]. For the same compound, the AC50 under setting [1] is 4.11 µM [falling, partial curve].
